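Vaccinia-infected cells with a two-color viral stage reporter; Venus fluorescence read on a plate reader; the cell line is not named here; timing not stated here. The test concentration is not given here. Percent change in Venus reporter signal; lower (more negative) values mean stronger inhibition of that viral stage.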

Values are in %. The controls that fix the scale are not given here. Common to all entries: measured here: Venus reporter, other viral stage. This is a side read-out of the assay, for part of the compounds, not drawn at random.

compound: C[C@@H]1CN([C@@H](C)CO)S(=O)(=O)c2ccc(C#Cc3ccc(F)cc3)cc2O[C@H]1CN(C)C(=O)c1ccccn1
activity change (Venus) (%): -45.69

compound: O=C(Nc1ccc(F)cc1)N1CCCCN2[C@H](CO)[C@@H](c3ccc(C#CC4CC4)cc3)[C@@H]2C1
activity change (Venus) (%): -54.72

compound: O=C(C1CCC1)N1CC(=O)N2[C@H](CO)[C@@H](c3ccc(C#Cc4cccc(F)c4)cc3)[C@@H]2C1
activity change (Venus) (%): -68.89

compound: C[C@H]1CN([C@@H](C)CO)C(=O)c2cccc(NC(=O)C3CCCCC3)c2O[C@@H]1CN(C)Cc1ccc(Oc2ccccc2)cc1
activity change (Venus) (%): -40.43

compound: C[C@@H]1CCCCO[C@@H](CN(C)Cc2ccc(C(F)(F)F)cc2)[C@@H](C)CN([C@H](C)CO)C(=O)c2cc(NC(=O)c3ccccc3)ccc2O1
activity change (Venus) (%): -28.13

compound: C[C@@H]1CCCCO[C@H](CN(C)Cc2ccccc2)[C@@H](C)CN([C@H](C)CO)C(=O)c2cc(NC(=O)Nc3ccccc3)ccc2O1
activity change (Venus) (%): -29.91

compound: Cc1ccc(S(=O)(=O)N(C)C[C@H]2Oc3cc(C#Cc4ccncc4)ccc3S(=O)(=O)N([C@H](C)CO)C[C@H]2C)cc1
activity change (Venus) (%): -28.71

compound: COc1ccc(C#Cc2ccc([C@@H]3[C@H](CO)N4CCCCN(C(=O)Nc5ccc(F)cc5)C[C@@H]34)cc2)cc1
activity change (Venus) (%): -86

compound: C[C@H](CO)N1C[C@H](C)[C@@H](CN(C)C(=O)C2CCCCC2)Oc2cc(-c3ccccc3)ccc2S1(=O)=O
activity change (Venus) (%): -41.89

compound: C[C@@H]1CN([C@@H](C)CO)C(=O)Cc2cc(NC(=O)C3CC3)ccc2O[C@H]1CN(C)Cc1ccc(Oc2ccccc2)cc1
activity change (Venus) (%): -48.92

compound: CO[C@@H]1CN(C)C(=O)c2ccc(NC(=O)c3cc(C)on3)cc2OC[C@@H](C)N(S(=O)(=O)c2cccc(Cl)c2)C[C@H]1C
activity change (Venus) (%): -23.2

compound: C/C=C/c1ccc2c(c1)O[C@@H](CN(C)C(=O)Nc1ccc(C(F)(F)F)cc1)[C@H](C)CN([C@H](C)CO)S2(=O)=O
activity change (Venus) (%): -77.23

compound: Cc1ccc(S(=O)(=O)N(C)C[C@@H]2OCCCC[C@H](C)Oc3ccc(NS(=O)(=O)c4ccc(F)cc4)cc3C(=O)N([C@@H](C)CO)C[C@@H]2C)cc1
activity change (Venus) (%): -36.57

compound: COc1ccc(-c2ccc3c(c2)[C@H]2[C@H](CCN2C(=O)NC2CCCCC2)[C@H](CO)N3C)cc1
activity change (Venus) (%): -32.97

compound: C[C@@H]1CN([C@H](C)CO)C(=O)Cc2cc(NC(=O)C3CC3)ccc2O[C@H]1CN(C)Cc1ccc(-c2ccccc2)cc1
activity change (Venus) (%): -38.36

compound: CCCC#Cc1ccc2c(c1)O[C@H](CN(C)C(=O)Nc1ccc(OC)cc1)[C@H](C)CN([C@@H](C)CO)S2(=O)=O
activity change (Venus) (%): -37.52

compound: C[C@@H]1CN([C@H](C)CO)C(=O)c2c(c3ccccc3n2C)-c2ccccc2CO[C@@H]1CN(C)Cc1ccncc1
activity change (Venus) (%): -26.76

compound: Cc1cccc(-c2ccc([C@H]3[C@@H](CO)N4CCCCN(C(=O)c5ccc6c(c5)OCO6)C[C@@H]34)cc2)c1
activity change (Venus) (%): -28.57

compound: CCCC#Cc1ccc([C@H]2[C@@H](CO)N3CCCCN(S(=O)(=O)Cc4ccccc4)C[C@@H]23)cc1
activity change (Venus) (%): -55.73

compound: C[C@H]1CN([C@@H](C)CO)S(=O)(=O)c2ccc(C#CCC3CCCC3)cc2O[C@@H]1CN(C)C
activity change (Venus) (%): -79.69

compound: Cc1cccc(-c2ccc([C@H]3[C@@H](CO)N4CCCCN(CCC(F)(F)F)C[C@@H]34)cc2)c1
activity change (Venus) (%): -58.2

compound: O=C(C[C@@H]1C=C[C@@H](NC(=O)CCN2CCCCC2)[C@H](CO)O1)NCc1ccc(Cl)c(Cl)c1
activity change (Venus) (%): -17.33

compound: C[C@@H]1CN([C@@H](C)CO)S(=O)(=O)c2ccc(C#Cc3ccc(F)cc3)cc2O[C@@H]1CN(C)S(C)(=O)=O
activity change (Venus) (%): -43.88

compound: N#Cc1cccc(-c2ccc3c(c2)[C@H]2[C@H](CCN2S(=O)(=O)c2cccc(F)c2)[C@H](CO)N3)c1
activity change (Venus) (%): -44.56

compound: CN1C(=O)c2cc(NC(=O)c3ccc(C(F)(F)F)cc3)ccc2OC[C@@H]2O[C@H](CC(=O)NC3Cc4ccccc4C3)CC[C@H]21
activity change (Venus) (%): -21.81

compound: O=C(Nc1ccccc1F)N1CC(=O)N2[C@H](CO)[C@@H](c3ccc(C#Cc4ccc(F)cc4)cc3)[C@@H]2C1
activity change (Venus) (%): -48.94

compound: OC[C@@H]1[C@H](c2ccc(-c3ccc(F)cc3)cc2)[C@H](CNC2CCCC2)N1CCC(F)(F)F
activity change (Venus) (%): -50.83

compound: CS(=O)(=O)N1CC(=O)N2[C@H](C1)[C@H](c1ccc(C#CCC3CCCC3)cc1)[C@@H]2CO
activity change (Venus) (%): -47.86

compound: Cc1ccc(S(=O)(=O)N(C)C[C@H]2OCCCC[C@@H](C)Oc3ccc(NS(=O)(=O)c4cccs4)cc3C(=O)N([C@H](C)CO)C[C@H]2C)cc1
activity change (Venus) (%): -33.73

compound: CC(C)C#Cc1ccc([C@H]2[C@@H](CO)N(C(=O)c3ccccn3)[C@H]2C#N)cc1
activity change (Venus) (%): -43.74

compound: Cc1ccccc1-c1ccc2c(c1)O[C@H](CN(C)CC1CC1)[C@H](C)CN([C@@H](C)CO)S2(=O)=O
activity change (Venus) (%): -49.34

For reference, 3 entries once more:

compound	activity change (Venus) (%)
O=C(Nc1ccccc1F)N1CC(=O)N2[C@H](CO)[C@@H](c3ccc(C#Cc4ccc(F)cc4)cc3)[C@@H]2C1	-48.94
C[C@@H]1CCCCO[C@H](CN(C)Cc2ccccc2)[C@@H](C)CN([C@H](C)CO)C(=O)c2cc(NC(=O)Nc3ccccc3)ccc2O1	-29.91
C[C@@H]1CN([C@@H](C)CO)C(=O)Cc2cc(NC(=O)C3CC3)ccc2O[C@H]1CN(C)Cc1ccc(Oc2ccccc2)cc1	-48.92

The results are deposited in PubChem (AID1053133; Broad Institute, 2014).